# Source: PubChem BioAssay (EPA / NIEHS)
# The chains behind the UniProt entries cited, without tags or fusion partners. Where a name states a change or a piece, a line headed by the entry shows the natural chain unless it says otherwise.
# UniProt P06401: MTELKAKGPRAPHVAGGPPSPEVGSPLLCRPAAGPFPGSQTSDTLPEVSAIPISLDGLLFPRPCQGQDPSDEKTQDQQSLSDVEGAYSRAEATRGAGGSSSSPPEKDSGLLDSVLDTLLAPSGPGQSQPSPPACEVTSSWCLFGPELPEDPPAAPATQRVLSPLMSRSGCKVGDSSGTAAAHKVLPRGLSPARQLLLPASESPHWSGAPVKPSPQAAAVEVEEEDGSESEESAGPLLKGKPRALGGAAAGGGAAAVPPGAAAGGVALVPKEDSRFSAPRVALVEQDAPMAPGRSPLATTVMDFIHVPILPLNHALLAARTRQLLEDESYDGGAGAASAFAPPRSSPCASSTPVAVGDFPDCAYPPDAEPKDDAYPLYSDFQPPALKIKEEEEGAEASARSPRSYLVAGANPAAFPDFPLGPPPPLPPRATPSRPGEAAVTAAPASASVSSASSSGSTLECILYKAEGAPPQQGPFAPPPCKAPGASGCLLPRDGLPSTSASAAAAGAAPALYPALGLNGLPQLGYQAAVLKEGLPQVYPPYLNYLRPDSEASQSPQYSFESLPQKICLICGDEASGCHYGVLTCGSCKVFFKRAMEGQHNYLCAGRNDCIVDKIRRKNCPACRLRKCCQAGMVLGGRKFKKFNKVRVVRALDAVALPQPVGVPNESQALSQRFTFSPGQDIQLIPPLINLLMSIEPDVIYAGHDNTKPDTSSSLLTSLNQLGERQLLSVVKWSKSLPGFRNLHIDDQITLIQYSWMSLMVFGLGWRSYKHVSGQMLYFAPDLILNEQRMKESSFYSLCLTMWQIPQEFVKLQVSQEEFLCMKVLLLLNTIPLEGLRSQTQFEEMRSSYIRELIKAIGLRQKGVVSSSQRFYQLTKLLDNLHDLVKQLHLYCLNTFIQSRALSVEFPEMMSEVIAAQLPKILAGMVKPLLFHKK
# UniProt Q07869: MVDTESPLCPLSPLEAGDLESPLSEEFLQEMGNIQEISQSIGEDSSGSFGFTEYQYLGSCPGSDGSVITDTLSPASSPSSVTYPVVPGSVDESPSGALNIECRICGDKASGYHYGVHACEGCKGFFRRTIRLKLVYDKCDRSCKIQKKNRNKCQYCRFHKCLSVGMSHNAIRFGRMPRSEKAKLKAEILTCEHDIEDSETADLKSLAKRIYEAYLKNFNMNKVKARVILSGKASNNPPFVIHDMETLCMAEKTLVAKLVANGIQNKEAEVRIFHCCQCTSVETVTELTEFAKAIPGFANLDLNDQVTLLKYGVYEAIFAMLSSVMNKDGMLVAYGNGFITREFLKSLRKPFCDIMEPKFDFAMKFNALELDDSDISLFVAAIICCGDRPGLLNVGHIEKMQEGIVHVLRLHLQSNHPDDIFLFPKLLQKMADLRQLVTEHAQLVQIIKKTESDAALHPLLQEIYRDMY
# UniProt P37231: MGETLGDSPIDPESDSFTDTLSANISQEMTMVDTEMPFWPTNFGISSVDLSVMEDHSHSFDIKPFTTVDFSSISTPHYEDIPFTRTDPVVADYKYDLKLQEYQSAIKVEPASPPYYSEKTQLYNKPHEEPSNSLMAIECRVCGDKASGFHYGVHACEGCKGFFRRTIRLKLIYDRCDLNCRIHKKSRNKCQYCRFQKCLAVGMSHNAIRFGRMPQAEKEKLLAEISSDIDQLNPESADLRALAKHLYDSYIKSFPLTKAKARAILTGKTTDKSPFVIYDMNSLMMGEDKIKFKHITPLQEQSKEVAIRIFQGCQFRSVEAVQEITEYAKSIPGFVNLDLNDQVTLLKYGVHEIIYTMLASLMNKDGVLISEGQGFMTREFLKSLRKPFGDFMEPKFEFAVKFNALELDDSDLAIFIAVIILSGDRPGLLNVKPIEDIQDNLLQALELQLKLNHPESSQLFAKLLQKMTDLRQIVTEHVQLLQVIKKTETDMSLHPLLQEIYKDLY
# UniProt P10276, whole entry, looked up: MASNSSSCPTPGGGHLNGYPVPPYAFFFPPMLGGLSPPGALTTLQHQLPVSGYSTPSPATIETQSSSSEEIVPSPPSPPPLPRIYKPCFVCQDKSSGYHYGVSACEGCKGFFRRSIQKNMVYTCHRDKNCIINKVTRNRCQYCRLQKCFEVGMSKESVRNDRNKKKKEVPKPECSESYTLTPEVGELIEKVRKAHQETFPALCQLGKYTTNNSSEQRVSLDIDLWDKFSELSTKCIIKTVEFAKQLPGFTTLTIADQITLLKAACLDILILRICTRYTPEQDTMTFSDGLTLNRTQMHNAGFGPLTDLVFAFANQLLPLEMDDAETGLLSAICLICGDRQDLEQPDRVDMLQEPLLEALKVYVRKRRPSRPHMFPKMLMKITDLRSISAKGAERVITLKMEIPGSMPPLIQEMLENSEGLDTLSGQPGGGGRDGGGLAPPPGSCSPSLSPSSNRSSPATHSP
# UniProt P10827: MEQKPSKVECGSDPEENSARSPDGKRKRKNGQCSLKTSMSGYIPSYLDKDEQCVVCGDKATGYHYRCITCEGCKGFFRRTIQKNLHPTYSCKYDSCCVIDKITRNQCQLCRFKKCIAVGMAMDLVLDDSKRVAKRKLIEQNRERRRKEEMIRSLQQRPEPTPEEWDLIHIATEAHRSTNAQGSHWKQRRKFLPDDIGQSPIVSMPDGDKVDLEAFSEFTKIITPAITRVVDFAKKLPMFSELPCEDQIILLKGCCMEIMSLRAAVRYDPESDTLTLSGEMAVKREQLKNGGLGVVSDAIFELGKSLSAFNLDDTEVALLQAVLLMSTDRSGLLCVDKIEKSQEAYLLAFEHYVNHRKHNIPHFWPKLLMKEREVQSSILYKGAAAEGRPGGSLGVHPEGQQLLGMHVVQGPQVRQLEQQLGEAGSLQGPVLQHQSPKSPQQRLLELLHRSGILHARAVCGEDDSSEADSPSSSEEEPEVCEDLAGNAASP
# UniProt O75469: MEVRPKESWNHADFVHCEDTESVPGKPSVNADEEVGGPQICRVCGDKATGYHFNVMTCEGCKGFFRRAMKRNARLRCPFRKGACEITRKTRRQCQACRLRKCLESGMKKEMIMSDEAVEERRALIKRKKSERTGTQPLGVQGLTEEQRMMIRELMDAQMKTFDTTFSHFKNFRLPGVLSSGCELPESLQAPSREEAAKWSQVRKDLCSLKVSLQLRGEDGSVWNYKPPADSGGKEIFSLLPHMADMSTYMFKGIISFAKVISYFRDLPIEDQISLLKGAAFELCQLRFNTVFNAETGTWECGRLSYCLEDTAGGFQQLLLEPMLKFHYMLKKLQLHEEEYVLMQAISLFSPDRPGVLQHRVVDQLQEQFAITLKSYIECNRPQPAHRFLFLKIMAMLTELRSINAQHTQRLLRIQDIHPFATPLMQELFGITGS
# UniProt P23975, whole entry, looked up: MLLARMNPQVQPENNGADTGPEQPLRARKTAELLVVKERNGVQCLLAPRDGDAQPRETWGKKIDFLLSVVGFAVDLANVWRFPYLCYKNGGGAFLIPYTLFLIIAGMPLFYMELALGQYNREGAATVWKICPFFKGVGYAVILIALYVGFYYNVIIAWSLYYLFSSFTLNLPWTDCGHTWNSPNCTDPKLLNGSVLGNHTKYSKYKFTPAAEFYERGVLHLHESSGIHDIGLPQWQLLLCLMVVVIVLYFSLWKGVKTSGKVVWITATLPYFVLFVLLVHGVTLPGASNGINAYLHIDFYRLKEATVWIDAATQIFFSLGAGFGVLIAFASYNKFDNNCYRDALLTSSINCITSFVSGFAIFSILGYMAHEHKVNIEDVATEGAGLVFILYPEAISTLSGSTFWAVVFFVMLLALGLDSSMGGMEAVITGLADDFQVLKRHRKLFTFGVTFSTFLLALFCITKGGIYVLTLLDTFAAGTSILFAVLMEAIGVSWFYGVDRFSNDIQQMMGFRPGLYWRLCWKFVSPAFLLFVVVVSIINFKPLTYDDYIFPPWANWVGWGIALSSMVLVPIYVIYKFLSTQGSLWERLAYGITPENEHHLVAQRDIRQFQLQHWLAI
# UniProt P04150: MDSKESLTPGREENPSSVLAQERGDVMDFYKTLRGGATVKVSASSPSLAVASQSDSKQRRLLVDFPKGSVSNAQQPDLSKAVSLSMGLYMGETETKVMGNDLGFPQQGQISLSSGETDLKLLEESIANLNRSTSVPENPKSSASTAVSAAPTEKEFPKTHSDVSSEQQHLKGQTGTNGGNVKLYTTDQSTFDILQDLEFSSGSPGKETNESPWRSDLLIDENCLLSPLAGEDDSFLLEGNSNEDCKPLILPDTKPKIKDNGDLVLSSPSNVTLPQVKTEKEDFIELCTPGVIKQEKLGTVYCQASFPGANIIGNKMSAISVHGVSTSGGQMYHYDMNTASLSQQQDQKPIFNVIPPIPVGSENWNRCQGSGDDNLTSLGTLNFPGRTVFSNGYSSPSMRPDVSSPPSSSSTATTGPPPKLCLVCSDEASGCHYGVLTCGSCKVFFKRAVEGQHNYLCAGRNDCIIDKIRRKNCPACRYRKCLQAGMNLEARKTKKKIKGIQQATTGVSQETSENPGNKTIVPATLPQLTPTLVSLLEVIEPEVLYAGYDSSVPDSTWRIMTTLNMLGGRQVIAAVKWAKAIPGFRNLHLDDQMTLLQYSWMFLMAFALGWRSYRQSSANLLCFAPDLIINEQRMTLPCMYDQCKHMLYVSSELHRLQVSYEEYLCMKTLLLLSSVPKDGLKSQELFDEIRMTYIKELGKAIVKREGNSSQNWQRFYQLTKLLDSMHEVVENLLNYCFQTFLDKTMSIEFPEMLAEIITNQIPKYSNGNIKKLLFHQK
# UniProt P15207: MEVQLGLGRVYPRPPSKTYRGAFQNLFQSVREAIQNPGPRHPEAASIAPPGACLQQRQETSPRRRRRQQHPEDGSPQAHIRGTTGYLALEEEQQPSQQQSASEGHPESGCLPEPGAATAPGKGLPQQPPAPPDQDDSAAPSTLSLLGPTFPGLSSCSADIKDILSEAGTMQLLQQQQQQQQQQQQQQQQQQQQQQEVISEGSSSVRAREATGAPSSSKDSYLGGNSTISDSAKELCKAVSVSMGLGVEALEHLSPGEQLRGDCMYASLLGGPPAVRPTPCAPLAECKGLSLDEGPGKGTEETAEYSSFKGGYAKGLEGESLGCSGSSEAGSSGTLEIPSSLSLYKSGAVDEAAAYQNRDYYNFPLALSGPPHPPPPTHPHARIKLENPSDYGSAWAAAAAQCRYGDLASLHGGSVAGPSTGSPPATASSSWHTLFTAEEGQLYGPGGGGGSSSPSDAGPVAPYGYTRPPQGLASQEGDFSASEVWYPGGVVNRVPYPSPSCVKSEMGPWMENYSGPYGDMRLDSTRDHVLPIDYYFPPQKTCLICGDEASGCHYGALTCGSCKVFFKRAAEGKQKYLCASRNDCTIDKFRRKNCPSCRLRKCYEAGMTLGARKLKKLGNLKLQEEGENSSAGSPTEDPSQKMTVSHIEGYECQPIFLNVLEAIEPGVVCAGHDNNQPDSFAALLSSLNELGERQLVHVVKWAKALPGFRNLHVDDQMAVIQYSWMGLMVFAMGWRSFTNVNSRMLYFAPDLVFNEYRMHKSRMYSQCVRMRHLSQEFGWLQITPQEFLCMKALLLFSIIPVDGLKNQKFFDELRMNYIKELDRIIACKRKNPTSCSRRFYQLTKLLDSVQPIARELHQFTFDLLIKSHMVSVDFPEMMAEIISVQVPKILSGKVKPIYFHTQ
# UniProt P31645, whole entry, looked up: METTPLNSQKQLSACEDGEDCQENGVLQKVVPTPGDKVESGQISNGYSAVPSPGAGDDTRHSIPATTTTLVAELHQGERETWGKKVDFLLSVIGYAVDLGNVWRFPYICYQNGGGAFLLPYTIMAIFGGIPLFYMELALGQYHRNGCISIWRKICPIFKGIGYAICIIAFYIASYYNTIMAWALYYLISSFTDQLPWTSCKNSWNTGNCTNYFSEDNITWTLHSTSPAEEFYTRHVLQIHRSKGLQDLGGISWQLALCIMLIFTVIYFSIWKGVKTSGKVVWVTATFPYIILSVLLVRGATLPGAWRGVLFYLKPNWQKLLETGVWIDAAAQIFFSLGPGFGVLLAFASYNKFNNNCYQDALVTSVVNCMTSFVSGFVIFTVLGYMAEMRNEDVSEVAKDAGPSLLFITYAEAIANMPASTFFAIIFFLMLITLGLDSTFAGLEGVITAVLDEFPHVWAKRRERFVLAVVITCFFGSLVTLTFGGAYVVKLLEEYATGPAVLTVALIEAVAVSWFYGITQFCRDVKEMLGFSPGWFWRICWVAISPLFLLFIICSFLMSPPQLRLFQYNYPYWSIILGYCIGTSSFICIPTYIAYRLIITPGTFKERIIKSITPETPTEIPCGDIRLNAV
# Inconclusive means that the source gave no clear call. Such entries were picked first, then a sample of the others. For some assays here: Potencies of inconclusive entries are doubtful fits and often do not repeat. Some compounds were tested as several samples or in several runs, with calls that do not always agree. Activity calls are given as the source filed them. The calls were made as follows: active = hit-call score of the fitted dose curve at least 0.9, where 1 is the maximum; inconclusive = response in the unintended direction; inactive = score below 0.9.
# Key:
# [1] = molecular target: PGR (gene 5241) (UniProt P06401); test: NVS_NR_hPR: NovaScreen (NVS) Nuclear Receptor Binding Assay for human Progestron Receptor (PR) (AID 2283360);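 also: active means loss of bound radioligand signal versus DMSO baseline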
# How it was run: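 Competitive displacement of a labelled radioligand from T47D-derived receptor protein is measured in a cell-free format. Initial testing uses 25 uM in duplicate, with positive and negative controls on every plate.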
# [2] = molecular target: human Peroxisome Proliferator-activated Receptor alpha (PPARa), PPARA (gene 5465) (UniProt Q07869); test: NVS_NR_hPPARa: NovaScreen (NVS) Nuclear Receptor Binding Assay for human Peroxisome Proliferator-activated Receptor alpha (PPARa) (AID 2283359);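 also: activity means loss of TR-FRET signal versus DMSO baseline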
# How it was run: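 One-hour incubation, cell-free extracted protein, TR-FRET binding readout; signal loss vs DMSO scored. Screen: 25 uM duplicates, confirmatory dose series for actives.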
# [3] = molecular target: Peroxisome proliferator-activated receptor gamma (Homo sapiens) (UniProt P37231); test: NVS_NR_hPPARg: NovaScreen (NVS) Nuclear Receptor Binding Assay for human Peroxisome Proliferator-activated Receptor gamma (PPARg) (AID 2283370)
# How it was run: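 Fluorescence polarization readout of ligand binding to extracted human PPARg, measured at 2 h. Duplicate single-point screen at 25 uM, then concentration-series retesting; activity defined as signal loss versus DMSO.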
# [4] = molecular target: Retinoic acid receptor alpha (Homo sapiens) (UniProt P10276); test: NVS_NR_hRAR_Antagonist: NovaScreen (NVS) Nuclear Receptor Binding Assay for human Retinoic Acid Alpha Receptor Antagonism (RAR) (AID 2283358)
# How it was run: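 Chemicals were first tested in duplicate at 25 uM, then actives in concentration series, in a cell-free TR-FRET antagonist binding format. Measurements were taken 2 hours after dosing and loss of signal was evaluated against DMSO controls.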
# [5] = molecular target: human Thyroid Receptor Alpha (TRa), THRA (gene 7067) (UniProt P10827); test: NVS_NR_hTRa_Antagonist: NovaScreen (NVS) Nuclear Receptor Binding Assay for human Thyroid Receptor Alpha Antagonism (TRa) (AID 2283362);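 also: activity is loss of signal relative to DMSO baseline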
# How it was run: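 Actives from a duplicate 25 uM single-point screen were retested in concentration series. The cell-free antagonist-format binding assay was read by AlphaLISA chemiluminescence at 1 h, scored as signal loss relative to DMSO.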
# [6] = system: rat Norepinephrine Transporter (NET), gene 83511; test: NVS_TR_rNET: NovaScreen (NVS) Transporter Assay for rat Norepinephrine Transporter (NET) (AID 2283373)
# How it was run: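 Competitive radioligand displacement at the rat NET using forebrain membrane preparations, 1 h incubation, filter-based scintillation readout. Primary testing in duplicate at a single 25 uM concentration; confirmed actives retested across concentrations.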
# [7] = molecular target: Nuclear receptor subfamily 1 group I member 2 (Homo sapiens) (UniProt O75469); test: NVS_NR_hPXR: NovaScreen (NVS) Nuclear Receptor Binding Assay for human Pregnane X Receptor (PXR) (AID 2283365);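 also: a drop in FRET signal versus DMSO baseline means the compound binds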
# How it was run: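 Human PXR binding measured by TR-FRET in a cell-free format, 2 h exposure. Single-concentration duplicates at 25 uM preceded concentration-response retests of actives; endpoint fitted positively relative to DMSO, loss of signal indicating binding.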
# [8] = system: guinea pig Dopamine Transporter (DAT), gene 100714898; test: NVS_TR_gDAT: NovaScreen (NVS) Transporter Assay for guinea pig Dopamine Transporter (DAT) (AID 2283369);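 also: active compounds lower bound radioligand signal relative to DMSO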
# How it was run: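 Radioligand displacement on membranes from guinea pig striatum, 2 h exposure, bound label counted by filtration and scintillation. Tested at 25 uM in duplicate, then actives in concentration series to 50 uM; DMSO as negative control.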
# [9] = molecular target: Retinoic acid receptor alpha (Homo sapiens) (UniProt P10276); test: NVS_NR_hRARa_Agonist: NovaScreen (NVS) Nuclear Receptor Binding Assay for human Retinoic Acid Alpha Receptor Agonism (RAR) (AID 2283361)
# How it was run: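 Compounds screened at 25 uM, duplicate, then in concentration series if active. Detection: TR-FRET gain of signal versus DMSO after 2 h with cell-free extracted RARα.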
# [10] = molecular target: human Norepinephrine Transporter (NET), SLC6A2 (gene 6530) (UniProt P23975); test: NVS_TR_hNET: NovaScreen (NVS) Transporter Assay for human Norepinephrine Transporter (NET) (AID 2283377);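 also: cell-free membrane protein extracted from CHO cells expressing human NET; displacement of radioligand from human NET seen as loss of scintillation signal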
# How it was run: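 In this cell-free binding screen, chemicals at 25 uM (duplicate) compete with a radioligand for CHO-derived human NET over 1 hour, with filter-based radiodetection.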
# [11] = molecular target: Glucocorticoid receptor (Homo sapiens) (UniProt P04150); test: NVS_NR_hGR: NovaScreen (NVS) Nuclear Receptor Binding Assay for human Glucocorticoid Receptor (GR) (AID 2283363)
# How it was run: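 Single-readout cell-free binding: radioligand plus extracted receptor, 16-hour dosing, filter radiodetection; 25 uM duplicate primary, concentration series secondary.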
# [12] = molecular target: rat Androgen Receptor (AR), Ar (gene 24208) (UniProt P15207); test: NVS_NR_rAR: NovaScreen (NVS) Nuclear Receptor Binding Assay for rat Androgen Receptor (AR) (AID 2283366)
# How it was run: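 Actives from a duplicate single-concentration (25 uM) primary run went on to concentration series. Displacement of radioligand was counted by filtration and scintillation, 18 h post-dose, using prostate extracts from testosterone-pretreated rats, with DMSO as baseline.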
# [13] = molecular target: human Serotonin Transporter (SERT), SLC6A4 (gene 6532) (UniProt P31645); test: NVS_TR_hSERT: NovaScreen (NVS) Transporter Assay for human Serotonin Transporter (SERT) (AID 2283372)
# How it was run: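 Human platelet membrane preparation; displacement of radioligand from serotonin transporter measured after 1 h by filtration and scintillation counting. Single 25 uM duplicate screen, then concentration series for actives, with DMSO as negative baseline.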
smiles,measurement,setting,value
COC(=O)c1c(C(F)F)nc(C(F)(F)F)c(C2=NCCS2)c1CC(C)C,AC50,[1],inconclusive: 25 µM
CC(C)(C)c1cc(O)ccc1O,AC50,[2],inconclusive: 6.8 µM
same,AC50,[3],inconclusive: 25 µM
COP(=S)(OC)Oc1ccc([N+](=O)[O-])cc1,AC50,[4],inconclusive: 0.804 µM
same,outcome,[5],inactive
same,AC50,[3],inconclusive: 0.281 µM
same,AC50,[6],inconclusive: 0.204 µM
CCCCNC(=O)OCC#CI,AC50,[2],active: 6.55 µM
same,outcome,[5],inactive
same,AC50,[3],inconclusive: 25 µM
CCC[CH2][Sn]([CH2]CCC)([CH2]CCC)[O]C(=O)c1ccccc1,AC50,[2],inconclusive: 0.0934 µM
same,AC50,[7],active: 14.6 µM
CC[C@H](C)[C@H]1O[C@]2(C=C[C@@H]1C)C[C@@H]1C[C@@H](C/C=C(\C)[C@@H](O[C@H]3C[C@H](OC)[C@@H](O[C@H]4C[C@H](OC)[C@@H](NC)[C@H](C)O4)[C@H](C)O3)[C@@H](C)/C=C/C=C3\CO[C@@H]4[C@H](O)C(C)=C[C@@H](C(=O)O1)[C@]34O)O2,AC50,[2],inconclusive: 25 µM
OC(c1ccc(Cl)cc1)(c1ccc(Cl)cc1)C(Cl)(Cl)Cl,AC50,[1],inconclusive: 0.0476 µM
same,outcome,[8],inactive
same,AC50,[3],inconclusive: 25 µM
CCC[CH2][Sn]([Cl])([Cl])[Cl],AC50,[7],inconclusive: 0.17 µM
OCCCCO,AC50,[9],inconclusive: 25 µM
COP(N)(=O)SC (stereo not drawn),AC50,[1],inconclusive: 25 µM
same,AC50,[5],inconclusive: 9.85 µM
ClC1=C(Cl)[C@]2(Cl)[C@@H]3[C@@H]4C[C@@H]([C@H]5O[C@@H]45)[C@@H]3[C@@]1(Cl)C2(Cl)Cl,outcome,[9],inactive
same,outcome,[3],inactive
same,AC50,[10],inconclusive: 25 µM
CC(C)NC(=O)N1CC(=O)N(c2cc(Cl)cc(Cl)c2)C1=O,AC50,[1],inconclusive: 6.78 µM
same,AC50,[5],inconclusive: 1.38 µM
N#CCCCCC#N,AC50,[5],inconclusive: 25 µM
ClC1(Cl)C2(Cl)C3(Cl)C4(Cl)C(Cl)(Cl)C5(Cl)C3(Cl)C1(Cl)C5(Cl)C24Cl (stereo not drawn),outcome,[9],inactive
OCCOCCO,outcome,[7],inactive
CCCCc1ccc(O)cc1,outcome,[9],inactive
CCOP(=S)(OCC)SCSC(C)(C)C,AC50,[7],inconclusive: 42 µM
COc1nn(C(=O)NS(=O)(=O)c2ccccc2OC(F)(F)F)c(=O)n1C,AC50,[7],active: 23.4 µM
C[C@]12CCC(=O)C[C@@H]1CC[C@@H]1[C@@H]2CC[C@]2(C)[C@@H](O)CC[C@@H]12,AC50,[7],inconclusive: 0.000438 µM
Cc1c(COC(=O)[C@@H]2[C@H](/C=C(\Cl)C(F)(F)F)C2(C)C)cccc1-c1ccccc1,AC50,[5],inconclusive: 0.162 µM
CCc1ccc(C(=O)NN(C(=O)c2cc(C)cc(C)c2)C(C)(C)C)cc1,AC50,[5],inconclusive: 0.0951 µM
Cc1cc(Cl)ccc1OCC(=O)O,AC50,[7],inconclusive: 4.96 µM
Sc1ccccc1,AC50,[7],inconclusive: 25 µM
Oc1ccccc1-c1ccccc1,AC50,[1],inconclusive: 1.39 µM
same,AC50,[7],active: 15.7 µM
same,outcome,[3],inactive
CCCN(CCOc1c(Cl)cc(Cl)cc1Cl)C(=O)n1ccnc1,AC50,[5],active: 6.39 µM
O=C(N[C@H]1CN2CCC1CC2)c1ccc2c(c1)OCCO2,outcome,[9],inactive
same,AC50,[5],inconclusive: 25 µM
C=CCC1=C(C)C(OC(=O)C2C(C=C(C)C)C2(C)C)CC1=O (stereo not drawn),outcome,[11],inactive
same,AC50,[8],inconclusive: 0.0411 µM
same,outcome,[8],inactive
same,AC50,[3],inconclusive: 25 µM
CCC1(c2ccc(N)cc2)CCC(=O)NC1=O (stereo not drawn),AC50,[7],inconclusive: 25 µM
Cc1ccc(N)cc1N,AC50,[1],inconclusive: 25 µM
CCOc1ccc(N)cc1,AC50,[9],inconclusive: 0.0272 µM
CCCN(CCC)c1c([N+](=O)[O-])cc(C(F)(F)F)cc1[N+](=O)[O-],AC50,[1],inconclusive: 25 µM
same,AC50,[5],inconclusive: 1.31 µM
same,outcome,[12],inactive
same,AC50,[3],inconclusive: 0.0749 µM
Nc1ccc(Cl)c(Cl)c1,AC50,[7],inconclusive: 25 µM
CCCCOCCOP(=O)(OCCOCCCC)OCCOCCCC,AC50,[7],active: 5.67 µM
Clc1ccc(C2(Cn3cncn3)CC(Br)CO2)c(Cl)c1 (stereo not drawn),AC50,[7],active: 19.8 µM
CC(C)(C)OOC(C)(C)C,AC50,[5],inconclusive: 22.1 µM
same,AC50,[7],inconclusive: 13.1 µM
Cn1sc(Cl)cc1=O,AC50,[5],inconclusive: 25 µM
same,AC50,[10],active: 1.59 µM
CC(=Cc1ccccc1)[N+](=O)[O-],AC50,[7],inconclusive: 0.0587 µM
CC1(C)C(C=C(Cl)Cl)C1C(=O)OC(C#N)c1cccc(Oc2ccccc2)c1 (stereo not drawn),AC50,[5],inconclusive: 25 µM
same,AC50,[3],inconclusive: 0.0592 µM
C[N+](C)(C)CC1CO1 (stereo not drawn),outcome,[7],inactive
c1ccc2c(c1)-c1cccc3cccc-2c13,outcome,[9],inactive
CCN1CCC2(CC1)COc1cc3c(cc12)N(C(=O)c1ccc(-c2ccc(-c4nnc(C)o4)cc2C)cc1)CC3,AC50,[9],inconclusive: 4.64 µM
same,outcome,[13],inactive
same,AC50,[10],active: 10.1 µM

# 5 neighbouring entries already listed, quoted:
smiles,measurement,setting,value
COC(=O)c1c(C(F)F)nc(C(F)(F)F)c(C2=NCCS2)c1CC(C)C,AC50,[1],inconclusive: 25 µM
CC(C)(C)c1cc(O)ccc1O,AC50,[2],inconclusive: 6.8 µM
same,AC50,[3],inconclusive: 25 µM
COP(=S)(OC)Oc1ccc([N+](=O)[O-])cc1,AC50,[4],inconclusive: 0.804 µM
same,outcome,[5],inactive
